From patent publication CN113861292A
No constants are given. Whether binding was seen depends on the method and setting. Some entries that bind do so weakly or less than the wild type.

The chains behind the UniProt entries cited, without tags or fusion partners. Where a name states a change or a piece, a line headed by the entry shows the natural chain unless it says otherwise. A line that says so, or that is headed by a name, gives the form on record, which may keep a tag or linker.
cCD40-His(食蟹猴CD40) (食蟹猴 (cynomolgus monkey)) (G7PG38, form named): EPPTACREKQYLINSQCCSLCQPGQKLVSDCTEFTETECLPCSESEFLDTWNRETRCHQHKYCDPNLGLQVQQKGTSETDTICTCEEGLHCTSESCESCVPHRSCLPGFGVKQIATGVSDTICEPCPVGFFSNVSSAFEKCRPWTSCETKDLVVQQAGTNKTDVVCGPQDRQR

Molecular target: cCD40-His(食蟹猴CD40) (食蟹猴 (cynomolgus monkey)) (UniProt G7PG38)
Test: ELISA, 2 μg/ml cCD40-his coated, HRP second antibody

binding: binds
B1: 抗体25 (antibody, human IgG1, kappa, V domains shown)
VH: EVQLVESGGGLVQPGGSLRLSCAASGFSFGTYAMSWVRQAPGKGLEWVSGIDSGTGNPFYADSVKGRFTISRDNSKNTLYLQMNSLRAEDTAVYYCARALYYTGFYRPLDYWGQGTLVTVSS
VL: DIQMTQSPSSLSASVGDRVTITCRASQGISSYLAWYQQKPGKAPKLLIYAASSLQSGVPSRFSGSGSGTDFTLTISSLQPEDFATYYCQQHYTTPPTFGQGTKVEIKR
